No constants are given. Whether binding was seen depends on the method and setting. Some binding calls cover weakened binding; strength is not graded here.
Molecular target: LexA-MAP6d1 (mouse) (UniProt Q14BB9)
Assay: two-hybrid; yeast two-hybrid, LexA bait (pLex10) and GAD prey (pAct2); growth on medium lacking leucine, tryptophan and histidine, and β-galactosidase staining

The chains behind the UniProt entries cited, without tags or fusion partners.
UniProt Q14BB9: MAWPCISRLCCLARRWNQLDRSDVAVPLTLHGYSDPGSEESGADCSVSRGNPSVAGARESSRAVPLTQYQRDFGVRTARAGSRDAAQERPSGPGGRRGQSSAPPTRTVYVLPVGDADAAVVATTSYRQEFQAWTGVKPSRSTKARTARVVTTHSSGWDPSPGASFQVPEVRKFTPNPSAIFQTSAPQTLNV

B1: MAP6-E (protein, UniProt Q7TSJ2-2 1-568)
chain: MAWPCITRACCIARFWNQLDKADIAVPLVFTKYSEATEHPGAPPQPPAPLQPALAPPSRAVAIETQPAQGESDAVARATGPAPGPSVDRETVAAPGRSGLGLGAASASTSGSGPADSVMRQDYRAWKVQRPEPSCRPRSEYQPSDAPFERETQYQKDFRAWPLPRRGDHPWIPKPVQIPATSQPSQPVLGVPKRRPQSQERGPMQLSADARDPEGAGGAGVLAAGKASGVDQRDTRRKAGPAWMVTRNEGHEEKPLPPAQSQTQEGGPAAGKASGADQRDTRRKAGPAWMVTRSEGHEEKPLPPAQSQTQEGGPAAGKASGADQRDTRRKAGPAWMVTRTEGHEETPLPPAQSQTQEGGPAAGKASGADERDTRRKAGPAWMVRRSEGHEQTPAAHAQGTGPEGGKGRAVADALNRQIREEVASTVSSSYRNEFRAWTDIKPVKPIKAKPQYKPPDDKMVHETSYSAQFKGEANKPSAADNKAMDRRRIRSLYSEPFKECPKVEKPSVQSSKPKKTSTSHKPPRKAKDKQVVSGQAAKKKTTEGPSATKPDDKEQSKEMNNKLAEAKE
**Q.** Which binding does the source give for B1 here?
**A.** binds
